The nature of the experiment: qHTS Assay for Lipid Storage Modulators in Drosophila S3 Cells.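 On cell number change: cells counted by Cell Tracker Red CMTPX staining in the red channel.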 The note with it: BODIPY lipid droplet fluorescence, 18-24 h; for cell number change: measured here: cell count max response, cells fed with added oleic acid. The gist of the method:
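Drosophila S3 cells got compounds at several concentrations plus oleic acid (400 uM solution). Laser-scanning cytometry with 488 nm excitation read lipid droplets at 500-530 nm and cells at 575-640 nm. Percent activity was relative to 20 uM Triacsin C.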
(In general: qHTS replaces the single test concentration by a dilution series.)

Where [1] appears, read: measured here: lipid fluorescence (Fed channel) AC50, cells fed with added oleic acid.
Setting [2] is: measured here: cell number channel AC50, cells fed with added oleic acid.

The list shows a part of the results. Shown are side measurements of this screen, not its main read-out; they come without a call. The list favours compounds with an active or inconclusive main result. The note in brackets gives the kind of curve behind each potency; many fits are weak.

Broadly, the AC50 is the concentration giving half of the maximal activity seen. A low value points to activity at low concentration.

Consider `O=C(O)COc1ccc(-c2nnn(CC(=O)O)n2)cc1`, for which the cell number change is 0.504%. In addition, the AC50 under setting [1] was 0.0731 µM [falling, full curve, poor fit].

As to `COc1ccc(CCn2c(C)cc(C(=O)CN3C(=O)C(=O)N(C4CCCC4)C3=O)c2C)cc1OC`, the AC50 runs as follows: under setting [2], 7.31 µM [rising, single point]; under setting [1], 8.2 µM [rising, partial curve]. As for `COc1ccc(C(=O)Nc2ccc(NC(=O)c3cccs3)cc2)cc1Cl`, the cell number change was found to be 9.03%. For the same compound, the AC50 under setting [1] is 0.366 µM [rising, full curve, poor fit].

Consider `Cc1c(C(=O)O)sc(S(=O)(=O)N2CCN(C(=O)Cc3ccccc3Cl)CC2)c1C(=O)O`, for which the cell number change is -6.48%. Also, the AC50 under setting [2] was 0.00461 µM [falling, full curve, poor fit]. Consider `CCOc1cc(S(=O)(=O)N(CC)CC)ccc1Cl`, for which the AC50 under setting [1] is 0.116 µM [falling, full curve, poor fit]. For the compound `N#Cc1ccc(S(=O)(=O)N2CCN(C(=O)[C@@H]3CCCN3C(=O)c3cccs3)CC2)cc1`, the cell number change is 6.8%. Also, under setting [1], the AC50 was 2.59 µM [falling, partial curve, poor fit]. `O=S(=O)(c1cc(Cl)sc1Cl)N1CCCC1`: the cell number change came out at 6.87%. Under setting [2], the AC50 was 0.411 µM [falling, single point]. For the compound `CC(C)(C)NC(=O)C1CC(=O)OC12CCCCC2` (centres undefined), the cell number change was -6.58%. The AC50 under setting [1] is 1.16 µM [falling, full curve, poor fit]. For the compound `CCN(CC)S(=O)(=O)c1ccc2c(c1)nc(SCC(=O)NC1CC1)n2-c1ccccc1OC`, the AC50 under setting [1] is 6.51 µM [rising, single point].

Regarding `CN1CCN(C(=O)C(N)Cc2ccccc2)CC1` (centres undefined), the cell number change was -5.74%. In addition, the AC50 under setting [1] is 0.146 µM [falling, full curve, poor fit].

With `COc1cccc(CN2CCN(Cc3nc(C(C)C)cs3)CC2CCO)c1` (centres undefined), the cell number change came to 3.1%. Moreover, the AC50 under setting [1] was 5.8 µM [falling, partial curve].

For `CSc1nnnn1-c1c(C)cc(C)cc1C`, the cell number change came to 24.6%. The AC50 under setting [2] is 0.461 µM [rising, full curve, poor fit]. In addition, the AC50 under setting [1] is 18.4 µM [rising, single point]. For the compound `Cc1ccc2c(c1)c1nnc(SCC(=O)Nc3cccc(Cl)c3C)nc1n2CC(=O)O`, the cell number change amounted to 2.88%. Regarding `COc1ccc(S(=O)(=O)N2CCCCC2)cc1NC(=O)c1cncc(Br)c1`, the cell number change is -26.7%. For the same compound, under setting [1], the concentration at half-maximal activity (AC50) was 0.146 µM [falling, full curve]. On to `Cn1c2c(c(=O)n(C)c1=O)C1(C(=O)Nc3ccccc31)C(C#N)=C(N)O2` (centres undefined), for which the cell number change was -24.4%. Consider `C=CCn1c(=S)[nH]c2sccc2c1=O`, for which the AC50 under setting [2] is 0.731 µM [rising, single point]. On to `O=C(CSc1nc2c(c(=O)n1-c1ccc(F)cc1)SCC2)NCc1ccco1`, for which the cell number change amounted to 4.98%. Under setting [1], the AC50 is 11.6 µM [rising, partial curve, poor fit]. Consider `Cc1cc2ncn(S(=O)(=O)N(C)C)c2cc1C`, for which the cell number change turned out to be 134%. Besides, under setting [2], the concentration at half-maximal activity (AC50) is 29.1 µM [rising, partial curve, poor fit]. Take `CCOc1ccc(C(=O)Nc2ccncc2)cc1`: the AC50 under setting [1] was 29.1 µM [falling, single point]. Take `Cc1ccnc(NS(=O)(=O)c2ccc(CC(C)C)cc2)c1`: the cell number change is -34.8%. Under setting [2], the AC50 is 3.26 µM [falling, full curve]. For the same compound, the AC50 under setting [1] is 29.1 µM [falling, single point].

In the case of `O=C(Nc1ccc(Cl)cc1)c1ccc2c(c1)OCO2`, the cell number change came to 3.87%. Under setting [1], the half-maximal activity concentration (AC50) is 20.6 µM [rising, single point]. Consider `Cc1cccc(NC(=O)CN2CCc3cc4c(cc3C2C)OCCCO4)c1` (centres undefined), for which the cell number change is -18.2%.

For the compound `Cc1ncc(CN2CCC(C(=O)Nc3ccc(Oc4cccnc4)cc3)CC2)cn1`, the cell number change is 19.8%. The AC50 under setting [1] is 29.1 µM [rising, single point]. `CCN1CCc2c(OCC(=O)Nc3cccc(C)c3)cccc2C1=O`: the cell number change amounted to 70.3%. In addition, the AC50 under setting [2] is 20.6 µM [rising, single point].

On to `Cc1ccccc1N(CC(=O)NCc1ccc2c(c1)OCO2)C(=O)C1CSC(=O)C1` (centres undefined), for which the cell number change was found to be 13.9%. Besides, the AC50 under setting [1] is 6.51 µM [rising, single point]. On to `COc1ccc2c(c1)c(C(=O)N/N=C/c1ccc(Cl)cc1)c(C)n2C`, for which the cell number change turned out to be 18.7%. Regarding `CCOC(=O)c1ccc(NC(=O)Cn2nnc(-c3ccccc3)n2)cc1`, the cell number change is -16.8%. Under setting [1], the AC50 was 14.6 µM [falling, partial curve]. As for `CC(=O)c1sc(NC(=O)c2cccc(N3C(=O)CCC3=O)c2)nc1-c1ccccc1`, the cell number change is 14%. Turning to `CCOc1ccccc1C(=O)NC1CCN(CC(=O)Nc2cc(OC)ccc2OC)CC1`, the cell number change was -30.3%. Moreover, the AC50 under setting [2] is 32.6 µM [falling, single point]. Besides, under setting [1], the AC50 was 7.31 µM [falling, partial curve]. Regarding `CCC(C)[C@H](NC(=O)NCc1ccccc1Cl)C(=O)O` (some centres undefined), the AC50 under setting [1] was 29.1 µM [falling, partial curve]. Turning to `O=C(NCc1ccccc1)NC12CC3CC(CC(C3)C1)C2`, the cell number change was -16.5%. Further, the AC50 under setting [1] was 0.146 µM [falling, full curve, poor fit]. For `Nc1cc(=O)[nH]n1C1CCN(c2ccccc2)CC1`, the cell number change was -3.66%. Consider `COc1ccc2nc(NC(=O)CSc3nc4ccccc4o3)sc2c1`, for which the cell number change was -38.4%. Moreover, the half-maximal activity concentration (AC50) under setting [2] is 0.651 µM [falling, full curve, poor fit]. For the same compound, the AC50 under setting [1] was 10.3 µM [falling, partial curve]. Take `Cc1cc(=O)[nH]c(SCC(=O)N2C(C)CCCC2C)n1` (centres undefined): the AC50 under setting [2] was 0.82 µM [rising, full curve, poor fit] and the AC50 under setting [1] was 1.16 µM [falling, full curve].

Consider `COc1ccc(CNC(=O)C(=O)NCCC2CCCCN2S(=O)(=O)c2ccccc2)cc1` (centres undefined), for which the cell number change was -11.9%. Besides, under setting [1], the AC50 is 18.4 µM [falling, single point]. In the case of `O=C1CC(c2ccc(F)cc2)Sc2nc(-c3ccccc3)c(-c3ccccc3)n21` (centres undefined), the cell number change stood at 18.3%. Further, the AC50 under setting [1] is 10.3 µM [rising, partial curve].

Regarding `Cc1cc(C)nc(N2CCN(c3nc(C)cc(C)n3)CC2)n1`, the cell number change came out at 4.47%. Under setting [1], the AC50 is 10.3 µM [rising, single point]. Turning to `CC(=O)Nc1ccc(S(=O)(=O)Nc2ccccc2C(=O)NCc2cccnc2)cc1`, the cell number change is -5.88%. For the same compound, under setting [1], the AC50 is 0.00461 µM [falling, full curve, poor fit]. Turning to `CCC(=NC(C)c1ccccc1)c1c(O)n(C)c(=O)n(C)c1=O` (centres undefined), the cell number change was -67.4%. Further, the AC50 under setting [1] was 1.3 µM [rising, full curve]. Consider `O=C(CCNS(=O)(=O)c1cccc2nsnc12)NCCC1=CCCCC1`, for which the cell number change was -17.8%.

Take `CCC(=O)N1CCc2cc(S(=O)(=O)N3CCN(c4ccccc4)CC3)ccc21`: the cell number change was -4.82%. Also, the AC50 under setting [1] is 3.66 µM [rising, single point].

In the case of `COc1ccccc1CNC(=O)COC(=O)Cc1ccc(F)cc1`, the cell number change was -14.8%. Also, the AC50 under setting [2] is 0.92 µM [falling, full curve, poor fit]. As for `CCOC(=O)CCc1c(C)n(CC)c2cc(-c3ccccc3OC)nn2c1=O`, the AC50 reads like this: under setting [2], 6.51 µM [rising, single point]; under setting [1], 3.66 µM [rising, partial curve].

In the case of `COc1ccc(C(=O)Nc2ccccc2C(=O)Nc2cccc(C)n2)cc1`, the cell number change was -0.501%. In addition, under setting [1], the AC50 was 0.326 µM [rising, full curve, poor fit]. Regarding `O=C(O)CCc1nn2c3ccccc3nc2n(-c2ccccc2)c1=O`, the cell number change is -20.8%. Further, the AC50 under setting [2] was 0.103 µM [falling, full curve, poor fit]. For the compound `O=C1C(Cl)=C(N2CCOCC2)C(=O)N1c1cccc(Cl)c1`, the cell number change was -12.8%.

Turning to `CC1CN(C(=O)CCC(=O)NCc2ccccc2)c2ccccc2S1` (centres undefined), the cell number change is -0.865%. Moreover, under setting [1], the AC50 is 0.00461 µM [falling, full curve, poor fit]. Regarding `CC1(C)C(=O)C2(CCCC2)C(=O)OC1c1ccco1` (centres undefined), the cell number change stood at 8.2%. In addition, under setting [1], the AC50 was 0.58 µM [falling, single point]. Turning to `c1ccc(CSc2nnc([C@@H]3CCCN3)o2)cc1`, the cell number change was found to be 6.59%. On to `CN1C(=O)N(CC(=O)N2CCN(S(=O)(=O)c3ccc4c(c3)CCC4)CC2)C(=O)C12CCCCC2`, for which the cell number change was -0.427%. In addition, the half-maximal activity concentration (AC50) under setting [1] is 1.03 µM [rising, full curve]. Consider `CS(=O)(=O)N(CCc1ccccc1)CC(=O)NCc1ccccc1`, for which the cell number change was -0.577%. Further, the AC50 under setting [1] is 29.1 µM [falling, single point].

As to `O=C(O)c1cc(NC(=O)c2cccc(C(=O)Nc3cc(C(=O)O)cc(C(=O)O)c3)c2)cc(C(=O)O)c1`, the cell number change amounted to 27.2%. For the same compound, the AC50 under setting [1] was 1.46 µM [falling, partial curve]. Regarding `CCC(C)(C)NC(=O)C1CCN(c2nc(OC)nc(OC)n2)CC1`, the cell number change was -5.06%. Besides, the AC50 under setting [2] is 6.51 µM [falling, single point]. Also, under setting [1], the AC50 was 6.51 µM [falling, single point]. For the compound `CSc1nc(N2CCOCC2)c2c3c(sc2n1)CCCC3`, the cell number change is -4.11%. Further, the AC50 under setting [1] is 0.146 µM [falling, full curve, poor fit]. In the case of `CCN1CCCC1CNC(=O)CCNC(=O)c1cc(OC)c(OC)c(OC)c1` (centres undefined), the cell number change was 6.28%. For the same compound, under setting [2], the AC50 is 1.46 µM [falling, full curve]. Under setting [1], the AC50 was 0.651 µM [falling, full curve, poor fit].

For the compound `Cc1ccc2cc(C#N)c(NCCNC(=S)NCCCN(C)C)nc2c1C`, the cell number change turned out to be 16.8%. In addition, the AC50 under setting [1] is 3.26 µM [falling, single point]. In the case of `CCC(C(=O)Nc1cc(C(=O)Nc2cc(C)ccn2)ccc1Cl)c1ccccc1` (centres undefined), the cell number change was determined as 29.2%. Also, the AC50 under setting [2] is 1.84 µM [rising, full curve, poor fit]. Further, the half-maximal activity concentration (AC50) under setting [1] is 2.59 µM [rising, partial curve].

For the compound `O=C(c1cc(S(=O)(=O)N2CCOCC2)ccc1F)N(Cc1nnc(-c2ccccc2Cl)o1)C1CC1`, the cell number change is -50%. In addition, the AC50 under setting [2] was 6.51 µM [rising, single point]. Moreover, the AC50 under setting [1] was 0.82 µM [rising, single point]. For the compound `COc1ccc(C(NC(=O)c2ccco2)c2ccc(OC)c(OC)c2)cc1OC`, the cell number change is 5.17%. Besides, under setting [1], the AC50 is 2.31 µM [rising, partial curve]. For `O=C(Cc1sc(Nc2ccccc2)nc1-c1ccccc1)NCc1ccccn1`, the cell number change was -31.3%. Besides, the AC50 under setting [1] is 1.16 µM [rising, partial curve].

The values are drawn from PubChem BioAssay AID2685 (National Center for Advancing Translational Sciences (NCATS), 2010).
